From article PMC10326439
Results are given in words; binding and its absence hold for the method and conditions named. In cells and extracts the contact can be indirect. Some results given as binding are weak or reduced against the parent protein; the word gives no strength.

The chains behind the UniProt entries cited, without tags or fusion partners. Residues count along the entry.
UniProt P54761, residues 16-987: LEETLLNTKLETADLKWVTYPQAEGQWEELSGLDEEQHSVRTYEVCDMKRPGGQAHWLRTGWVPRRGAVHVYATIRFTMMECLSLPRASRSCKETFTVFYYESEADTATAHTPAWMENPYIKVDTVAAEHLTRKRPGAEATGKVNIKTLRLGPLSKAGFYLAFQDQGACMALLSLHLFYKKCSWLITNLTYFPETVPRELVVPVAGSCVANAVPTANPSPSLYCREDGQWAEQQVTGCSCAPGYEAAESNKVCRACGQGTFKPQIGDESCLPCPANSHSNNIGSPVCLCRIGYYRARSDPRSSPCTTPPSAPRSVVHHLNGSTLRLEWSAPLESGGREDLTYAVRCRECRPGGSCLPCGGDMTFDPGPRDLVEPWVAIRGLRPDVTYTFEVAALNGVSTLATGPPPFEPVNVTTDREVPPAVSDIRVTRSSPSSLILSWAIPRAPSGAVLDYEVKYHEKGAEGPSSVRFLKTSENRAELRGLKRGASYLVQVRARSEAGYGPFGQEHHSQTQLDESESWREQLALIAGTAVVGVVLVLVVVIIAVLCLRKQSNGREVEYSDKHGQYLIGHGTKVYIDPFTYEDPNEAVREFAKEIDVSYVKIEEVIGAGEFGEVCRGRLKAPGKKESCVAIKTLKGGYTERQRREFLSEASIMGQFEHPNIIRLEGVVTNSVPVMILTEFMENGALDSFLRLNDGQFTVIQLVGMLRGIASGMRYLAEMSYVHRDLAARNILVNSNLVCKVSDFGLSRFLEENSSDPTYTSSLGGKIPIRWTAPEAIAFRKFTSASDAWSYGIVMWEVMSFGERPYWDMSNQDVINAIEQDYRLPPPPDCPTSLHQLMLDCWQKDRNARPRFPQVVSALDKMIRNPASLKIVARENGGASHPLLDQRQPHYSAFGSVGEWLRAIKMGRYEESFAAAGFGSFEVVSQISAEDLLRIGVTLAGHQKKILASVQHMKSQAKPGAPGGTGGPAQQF
UniProt P52800, residues 29-336: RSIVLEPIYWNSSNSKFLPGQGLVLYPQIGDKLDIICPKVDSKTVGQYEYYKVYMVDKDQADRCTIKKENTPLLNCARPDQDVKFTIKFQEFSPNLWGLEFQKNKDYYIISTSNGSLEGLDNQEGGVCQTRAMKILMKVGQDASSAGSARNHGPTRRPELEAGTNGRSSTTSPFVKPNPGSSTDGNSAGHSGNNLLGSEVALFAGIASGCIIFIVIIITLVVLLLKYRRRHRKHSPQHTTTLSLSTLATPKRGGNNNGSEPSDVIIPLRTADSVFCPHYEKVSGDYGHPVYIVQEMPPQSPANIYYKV

Molecular target: EphB4 (mouse (endogenous in primary C57BL/6 BMSC-derived osteoblasts)) (UniProt P54761)
Assay: co-IP; immunoprecipitation with anti-EphB4 antibody from the osteoblast-osteoclast co-culture system, 7 days in osteogenic medium, with or without LIPUS stimulation; EphrinB2 detected in the precipitate

binding: binds
Substance: EphrinB2 (from UniProt P52800 29-336) (ligand)
